PubChem BioAssay AID504786 | Drosophila RNAi Screening Center – 2011
Aim: 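Fly genes required for HIF-dependent transcription when hypoxia is mimicked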 (primary screen). System: Drosophila S2 cells with a stable HIF luciferase reporter. Knock-down reagent: long dsRNA against Drosophila genes, about 0.2 µg dsRNA per well of a 384-well plate. Timing: three days of knock-down, then 20 h of DFO before reading. Conditions: desferrioxamine (DFO) at 100 µM, an iron chelator that mimics hypoxia, for 20 h. Measured: 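HIF reporter luminescence in cells given 100 µM DFO for 20 h, using the mouse ldh-a hypoxia-response element, scored as per-plate z-scores; higher means greater loss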. Direction: z-score: higher = stronger loss of HIF reporter signal.
The screen tested about 21,000 reagents; shown is an unselected part of those that have a named target and a result. 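Primary screen; positive scores mean lost reporter signal, so the sign may be inverted from the usual convention.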

The first 4 entries, ahead of the listing:
| target | amplicon | z-score, replicate 1 | z-score, replicate 2 |
| --- | --- | --- | --- |
| CG9578 | DRSC20694 | -0.3 | -0.7 |
| CG10462 | DRSC02058 | -0.5 | -0.1 |
| CG1622 | DRSC19745 | -0.4 | -0.7 |
| sofe | DRSC19751 | -0.2 | -0.3 |

The list itself, repeating the preview:
| target | amplicon | z-score, replicate 1 | z-score, replicate 2 |
| --- | --- | --- | --- |
| CG9578 | DRSC20694 | -0.3 | -0.7 |
| CG10462 | DRSC02058 | -0.5 | -0.1 |
| CG1622 | DRSC19745 | -0.4 | -0.7 |
| sofe | DRSC19751 | -0.2 | -0.3 |
| DAAM | DRSC18479 | 0.1 | -0.4 |
| kin17 | DRSC11890 | -0.2 | 0.2 |
| Marf1 | DRSC03747 | -0.2 | -0.2 |
| Marf1 | DRSC03774 | -0.2 | -0.1 |
| nis | DRSC00290 | 0.9 | 0.7 |
| CG15152 | DRSC02453 | -0.2 | 0.3 |
| RpL34b | DRSC16475 | 0 | 0.4 |
| Or59b | DRSC04632 | -0.3 | -0.2 |
| sdt | DRSC17555 | 0.1 | -0.1 |
| sdt | DRSC17556 | -0.3 | -0.3 |
| sdt | DRSC17860 | -0.2 | -0.2 |
| sdt | DRSC17861 | -0.3 | -0.3 |
| sdt | DRSC18022 | -0.3 | -0.8 |
| sdt | DRSC18025 | -0.1 | 0.6 |
| sdt | DRSC18026 | -0.1 | 0.6 |
| sdt | DRSC18027 | -0.2 | -0.4 |
| sdt | DRSC18108 | -0.2 | -0.5 |
| Ugt303B1 | DRSC15141 | -0.2 | -0.3 |
| Alg11 | DRSC11647 | -0.2 | -0.3 |
| Prat | DRSC16797 | -0.1 | 0.6 |
| CG3663 | DRSC04402 | 0 | 0.3 |
| CG3632 | DRSC19137 | -0.2 | 0.2 |
| CG3632 | DRSC19871 | 0.1 | 0 |
| Cpsf100 | DRSC14146 | 1 | 1.6 |
| Prosbeta6 | DRSC11256 | 6.3 | 5.3 |
| Ir21a | DRSC00528 | -0.2 | -0.3 |
| Spf45 | DRSC03826 | 0.3 | 0.4 |
| Fuca | DRSC10591 | -0.2 | -0.9 |
| GstD11 | DRSC15251 | -0.3 | -0.4 |
| Vajk2 | DRSC02540 | -0.2 | -0.4 |
